Test results from the supplement of paper PMC12889115.
The list shows a part of the results. These are raw signals, not scaled to a control.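 In the initial screen, polymyxin B was used at a concentration that permeabilizes Salmonella's outer membrane but not its inner membrane. Maximum growth was set by DMSO wells with or without polymyxin B. Since plates varied, data were ranked per plate, and compounds giving the lowest OD600 advanced as hits.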

Tested on: Salmonella enterica serovar Typhimurium SL1344
Experiment: bacterial growth OD600 after 18 h with compound and polymyxin B; higher = more bacterial growth (less inhibition)
Conditions: 50 µM, Mueller-Hinton broth

Compound | bacterial growth OD600 (polymyxin B 0.75 µg/mL) | bacterial growth OD600 (polymyxin B 1 µg/mL)
Cc1ccc2occ(CN3CCOc4ccc(C(O)CCc5ccccc5)cc4C3)c(=O)c2c1 (configuration not stated) | 0.003 | –
COc1cccc(OCc2nc(C(=O)N3CCCCCCC3)co2)c1 | – | 1.02
COc1ccc(-c2ccccc2NC(=O)C2CCCN2C(=O)CCNC(C)=O)cc1 (configuration not stated) | – | 0.997
O=C(NCCN1CCOCC1)c1ccc(N2CCC(NCc3ccc4c(c3)OCO4)CC2)cc1 | 0.689 | –
CN(Cc1ccon1)C(=O)C1CCCN(c2nc(-c3ccccc3)nc3c2CCC3)C1 (configuration not stated) | – | 0.553
O=C(/C=C/c1ccco1)N1CCC2(CCCN(CCCc3ccccc3)C2)C1 (configuration not stated) | – | 0.024
O=C(CCC(F)(F)F)N1CCCC(CCc2c(F)cccc2F)C1 (configuration not stated) | 0.107 | –
CC(C)CN1CCC(C2CCN(S(=O)(=O)CC(F)(F)F)C2)CC1 (configuration not stated) | 0.916 | –
Cc1csc(CN(C)C(=O)c2ccc3oc(CCc4ccccc4)nc3c2)n1 | – | 0.864
O=C(Nc1ccc(Oc2ccccc2)nc1)C1CCN(Cc2cccnc2)CC1 | – | 0.982
COCc1ccc(C(=O)N(C)CC2CCN(CCc3ccc(Cl)cc3)CC2)o1 | – | 0.967
CN(CC1CCCN(CCc2ccccc2F)C1)C(=O)c1cccs1 (configuration not stated) | – | 0.958
O=C(NCc1cn2ccccc2n1)C1CCC(=O)N(CCN2CCOCC2)C1 (configuration not stated) | – | 1.15
CCOC(=O)C1CCCN(C(=O)c2cc(COc3cccc(C(C)=O)c3)[nH]n2)C1 (configuration not stated) | – | 0.917
Cc1nonc1CC(=O)NC1CC(=O)N(Cc2cccc3ccccc23)C1 (configuration not stated) | – | 0.949
CC(C)CC(=O)Nc1ccnn1C1CCN(Cc2cc(O)c3ccccc3n2)CC1 | 0.845 | –

Shown tab-delimited: entries from further up.
Compound	bacterial growth OD600 (polymyxin B 0.75 µg/mL)	bacterial growth OD600 (polymyxin B 1 µg/mL)
COc1ccc(-c2ccccc2NC(=O)C2CCCN2C(=O)CCNC(C)=O)cc1 (configuration not stated)	–	0.997
CN(Cc1ccon1)C(=O)C1CCCN(c2nc(-c3ccccc3)nc3c2CCC3)C1 (configuration not stated)	–	0.553
O=C(/C=C/c1ccco1)N1CCC2(CCCN(CCCc3ccccc3)C2)C1 (configuration not stated)	–	0.024
Cc1csc(CN(C)C(=O)c2ccc3oc(CCc4ccccc4)nc3c2)n1	–	0.864
CN(CC1CCCN(CCc2ccccc2F)C1)C(=O)c1cccs1 (configuration not stated)	–	0.958
O=C(NCc1cn2ccccc2n1)C1CCC(=O)N(CCN2CCOCC2)C1 (configuration not stated)	–	1.15
CCOC(=O)C1CCCN(C(=O)c2cc(COc3cccc(C(C)=O)c3)[nH]n2)C1 (configuration not stated)	–	0.917

Carrying on:

Compound | bacterial growth OD600 (polymyxin B 0.75 µg/mL) | bacterial growth OD600 (polymyxin B 1 µg/mL)
CO[C@H]1[C@H](NC(=O)Cc2ccccc2)c2ccccc2C12CCN(C(=O)c1cc(C)ccc1C)CC2 | 0.692 | –
COCCC(=O)N1CCC(n2nccc2NC(=O)c2ccccc2OC)CC1 | – | 1.06
O=C(NCc1ccncn1)c1csc2nc(-c3cccc(C(F)(F)F)c3)cn12 | – | 0.862
O=C(Cc1cccnc1)NC1CC(=O)N(Cc2cccc3ccccc23)C1 (configuration not stated) | – | 0.948
CN(C)CCC1CN(C(=O)c2ccc(C(F)(F)F)cc2)CCO1 (configuration not stated) | 0.822 | –
CC(C)CCn1c(CN(C)CCc2ccccn2)cnc1S(=O)(=O)C(C)C | – | 1.06
Fc1ccc(Oc2ncccc2CNC2CCSCC2)c(F)c1 | – | 0.846
COCc1nc2cc(NC(=O)Cc3ccccc3)cc(C(=O)NCC3OCCc4ccccc43)c2n1C (configuration not stated) | 0.781 | –
COCCN1CCN(C(=O)CC2(c3ccccc3C)CC(=O)N(Cc3cccnc3)C2=O)CC1 (configuration not stated) | 0.806 | –
CCN(CC1CCCN(CCc2cccc(OC)c2)C1)C(=O)c1ccnn1C (configuration not stated) | – | 0.79
CCC1CCCCN1C(=O)c1cc(COc2ccc3ncccc3c2)on1 (configuration not stated) | 0.519 | –
Cc1nc(N2CCCC2C(=O)N[C@@H](C)c2ccccc2)nc2ccccc12 (some centres not stated) | 0.007 | –
Cc1ccc(OCc2cc(C(=O)N(C)Cc3nc4ccccc4[nH]3)no2)cn1 | – | 0.911
COc1ccc(CN2C[C@@H]3C[C@@H](c4ccccc4OC)N4CCC[C@@]34C2=O)cc1 | 0.761 | –
Cc1nc(N2CCCC(C(=O)NCC(C)(C)CO)C2)nc2cc(S(C)(=O)=O)ccc12 (configuration not stated) | 0.815 | –
O=C(c1ccc(N2CCCCC2)cc1)N(Cc1ccncc1)Cc1ccc(OCc2cccc(F)c2)cc1 | 0.037 | –
